These results are taken from PMC8161077.

Sequences of proteins named here, by UniProt entry; tags and fusion partners are left off. A change or cut given only in a name is not applied to a line headed by its entry. Residues count along the entry.
UniProt P98164, residues 26-4655: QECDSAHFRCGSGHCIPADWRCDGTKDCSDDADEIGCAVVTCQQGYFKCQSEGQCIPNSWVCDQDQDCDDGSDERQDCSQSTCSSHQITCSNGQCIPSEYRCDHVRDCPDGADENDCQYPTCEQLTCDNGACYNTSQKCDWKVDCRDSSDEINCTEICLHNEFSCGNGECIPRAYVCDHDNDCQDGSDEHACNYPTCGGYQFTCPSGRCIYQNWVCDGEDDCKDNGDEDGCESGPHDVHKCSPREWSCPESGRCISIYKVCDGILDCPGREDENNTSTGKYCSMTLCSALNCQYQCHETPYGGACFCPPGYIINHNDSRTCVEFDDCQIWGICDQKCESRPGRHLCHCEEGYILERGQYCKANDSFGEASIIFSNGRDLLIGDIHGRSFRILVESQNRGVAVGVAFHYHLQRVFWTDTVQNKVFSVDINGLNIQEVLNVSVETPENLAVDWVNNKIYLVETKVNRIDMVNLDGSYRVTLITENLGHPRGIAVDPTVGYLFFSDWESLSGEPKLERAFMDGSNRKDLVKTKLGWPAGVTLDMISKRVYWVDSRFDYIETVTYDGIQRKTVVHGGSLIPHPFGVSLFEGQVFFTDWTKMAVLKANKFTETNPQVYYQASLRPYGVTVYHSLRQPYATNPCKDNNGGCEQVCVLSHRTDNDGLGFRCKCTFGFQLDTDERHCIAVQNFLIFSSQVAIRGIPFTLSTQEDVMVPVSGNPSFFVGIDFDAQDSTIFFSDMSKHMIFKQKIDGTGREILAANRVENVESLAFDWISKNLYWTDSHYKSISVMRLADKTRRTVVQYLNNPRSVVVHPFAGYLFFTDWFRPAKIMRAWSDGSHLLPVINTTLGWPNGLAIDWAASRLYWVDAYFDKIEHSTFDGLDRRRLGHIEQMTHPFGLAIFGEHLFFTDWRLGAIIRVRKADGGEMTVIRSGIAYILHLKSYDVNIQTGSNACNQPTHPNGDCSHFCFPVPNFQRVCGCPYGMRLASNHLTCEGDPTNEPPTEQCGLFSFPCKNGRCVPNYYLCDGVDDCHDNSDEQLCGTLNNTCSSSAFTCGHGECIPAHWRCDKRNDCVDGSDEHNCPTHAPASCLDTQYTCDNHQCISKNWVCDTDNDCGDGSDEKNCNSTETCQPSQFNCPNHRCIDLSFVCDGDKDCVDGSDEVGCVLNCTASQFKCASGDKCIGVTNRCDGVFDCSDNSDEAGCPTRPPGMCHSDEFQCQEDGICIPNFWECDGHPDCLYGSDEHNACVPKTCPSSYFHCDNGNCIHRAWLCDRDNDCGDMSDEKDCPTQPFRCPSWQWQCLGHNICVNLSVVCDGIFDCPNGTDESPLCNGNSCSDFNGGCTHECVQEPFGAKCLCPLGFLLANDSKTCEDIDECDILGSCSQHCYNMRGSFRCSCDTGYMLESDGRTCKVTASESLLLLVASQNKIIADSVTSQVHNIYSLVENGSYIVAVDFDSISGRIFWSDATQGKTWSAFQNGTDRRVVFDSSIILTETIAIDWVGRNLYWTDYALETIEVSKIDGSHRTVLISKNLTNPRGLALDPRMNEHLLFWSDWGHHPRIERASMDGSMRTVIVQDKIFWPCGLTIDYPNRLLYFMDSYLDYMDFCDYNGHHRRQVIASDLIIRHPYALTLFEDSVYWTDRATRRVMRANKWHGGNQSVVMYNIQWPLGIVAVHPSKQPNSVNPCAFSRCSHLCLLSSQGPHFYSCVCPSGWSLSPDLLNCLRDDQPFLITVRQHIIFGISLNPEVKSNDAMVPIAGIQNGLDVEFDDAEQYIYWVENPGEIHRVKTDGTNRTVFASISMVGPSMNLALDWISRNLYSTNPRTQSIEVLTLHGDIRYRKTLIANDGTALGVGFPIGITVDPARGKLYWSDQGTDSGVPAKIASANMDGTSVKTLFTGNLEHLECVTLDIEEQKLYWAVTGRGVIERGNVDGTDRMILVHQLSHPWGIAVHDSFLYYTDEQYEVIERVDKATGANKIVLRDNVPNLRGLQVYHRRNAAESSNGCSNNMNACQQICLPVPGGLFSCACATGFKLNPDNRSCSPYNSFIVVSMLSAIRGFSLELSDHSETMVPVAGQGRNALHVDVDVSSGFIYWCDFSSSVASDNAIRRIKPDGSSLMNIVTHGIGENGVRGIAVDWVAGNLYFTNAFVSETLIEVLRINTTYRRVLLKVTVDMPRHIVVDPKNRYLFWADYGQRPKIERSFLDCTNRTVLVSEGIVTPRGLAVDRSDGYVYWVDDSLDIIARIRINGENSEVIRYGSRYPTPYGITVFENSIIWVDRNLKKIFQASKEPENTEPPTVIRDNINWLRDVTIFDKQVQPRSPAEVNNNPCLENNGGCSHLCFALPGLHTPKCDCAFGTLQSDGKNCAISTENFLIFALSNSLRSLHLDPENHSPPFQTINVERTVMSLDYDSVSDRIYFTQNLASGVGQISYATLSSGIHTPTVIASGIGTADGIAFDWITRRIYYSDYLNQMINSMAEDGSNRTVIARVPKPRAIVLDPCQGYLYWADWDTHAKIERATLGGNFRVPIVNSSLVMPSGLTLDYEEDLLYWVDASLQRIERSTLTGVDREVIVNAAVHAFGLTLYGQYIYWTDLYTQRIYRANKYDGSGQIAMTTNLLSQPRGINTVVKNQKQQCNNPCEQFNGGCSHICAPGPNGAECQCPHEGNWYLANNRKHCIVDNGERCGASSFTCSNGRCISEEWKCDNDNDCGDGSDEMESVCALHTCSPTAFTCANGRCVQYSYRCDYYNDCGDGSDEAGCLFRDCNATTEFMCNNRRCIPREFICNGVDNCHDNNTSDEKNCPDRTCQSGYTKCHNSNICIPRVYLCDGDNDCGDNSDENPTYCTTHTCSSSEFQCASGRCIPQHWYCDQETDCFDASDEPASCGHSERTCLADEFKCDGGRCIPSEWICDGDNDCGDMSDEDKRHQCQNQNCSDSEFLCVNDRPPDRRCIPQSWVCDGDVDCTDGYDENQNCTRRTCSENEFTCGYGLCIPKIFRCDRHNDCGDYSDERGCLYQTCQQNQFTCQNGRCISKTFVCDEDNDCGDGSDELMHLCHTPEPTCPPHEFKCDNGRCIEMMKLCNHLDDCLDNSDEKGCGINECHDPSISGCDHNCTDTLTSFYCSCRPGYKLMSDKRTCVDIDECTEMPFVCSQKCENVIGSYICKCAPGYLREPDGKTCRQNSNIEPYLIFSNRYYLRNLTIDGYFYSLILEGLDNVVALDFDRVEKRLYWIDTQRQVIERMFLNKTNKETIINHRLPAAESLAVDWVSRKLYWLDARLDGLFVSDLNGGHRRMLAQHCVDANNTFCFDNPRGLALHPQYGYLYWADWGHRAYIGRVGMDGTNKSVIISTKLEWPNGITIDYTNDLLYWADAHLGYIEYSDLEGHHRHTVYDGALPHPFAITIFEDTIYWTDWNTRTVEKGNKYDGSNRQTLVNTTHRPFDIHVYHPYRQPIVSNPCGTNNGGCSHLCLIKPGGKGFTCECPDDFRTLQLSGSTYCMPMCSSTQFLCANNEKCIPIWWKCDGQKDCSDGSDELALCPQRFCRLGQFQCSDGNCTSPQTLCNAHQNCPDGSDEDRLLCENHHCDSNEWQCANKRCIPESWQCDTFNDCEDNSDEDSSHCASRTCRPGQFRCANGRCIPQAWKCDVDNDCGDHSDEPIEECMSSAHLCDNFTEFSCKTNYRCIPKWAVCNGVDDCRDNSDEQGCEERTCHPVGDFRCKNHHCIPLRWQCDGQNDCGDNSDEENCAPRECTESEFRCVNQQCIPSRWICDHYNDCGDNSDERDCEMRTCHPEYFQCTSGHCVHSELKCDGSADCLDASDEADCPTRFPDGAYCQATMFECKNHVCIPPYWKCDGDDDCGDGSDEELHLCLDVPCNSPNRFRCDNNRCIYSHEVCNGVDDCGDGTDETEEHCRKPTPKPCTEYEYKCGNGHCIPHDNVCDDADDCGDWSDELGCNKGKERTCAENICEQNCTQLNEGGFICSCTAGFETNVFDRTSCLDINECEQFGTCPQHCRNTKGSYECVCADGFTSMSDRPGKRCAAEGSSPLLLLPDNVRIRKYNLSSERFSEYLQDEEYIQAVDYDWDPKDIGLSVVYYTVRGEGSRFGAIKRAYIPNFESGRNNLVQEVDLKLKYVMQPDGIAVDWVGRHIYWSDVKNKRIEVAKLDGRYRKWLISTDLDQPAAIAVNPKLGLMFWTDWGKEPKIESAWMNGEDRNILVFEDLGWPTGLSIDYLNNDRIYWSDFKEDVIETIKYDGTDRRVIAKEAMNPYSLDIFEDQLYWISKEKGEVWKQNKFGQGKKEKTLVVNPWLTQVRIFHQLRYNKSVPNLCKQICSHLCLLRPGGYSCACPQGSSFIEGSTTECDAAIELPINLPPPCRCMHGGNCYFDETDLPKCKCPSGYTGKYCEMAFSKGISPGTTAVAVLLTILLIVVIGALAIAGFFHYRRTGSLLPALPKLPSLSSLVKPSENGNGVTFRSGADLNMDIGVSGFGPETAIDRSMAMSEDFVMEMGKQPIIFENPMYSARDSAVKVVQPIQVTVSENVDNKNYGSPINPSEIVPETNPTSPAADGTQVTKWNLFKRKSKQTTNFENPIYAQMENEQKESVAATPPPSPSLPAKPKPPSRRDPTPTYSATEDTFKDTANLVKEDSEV
UniProt P30533: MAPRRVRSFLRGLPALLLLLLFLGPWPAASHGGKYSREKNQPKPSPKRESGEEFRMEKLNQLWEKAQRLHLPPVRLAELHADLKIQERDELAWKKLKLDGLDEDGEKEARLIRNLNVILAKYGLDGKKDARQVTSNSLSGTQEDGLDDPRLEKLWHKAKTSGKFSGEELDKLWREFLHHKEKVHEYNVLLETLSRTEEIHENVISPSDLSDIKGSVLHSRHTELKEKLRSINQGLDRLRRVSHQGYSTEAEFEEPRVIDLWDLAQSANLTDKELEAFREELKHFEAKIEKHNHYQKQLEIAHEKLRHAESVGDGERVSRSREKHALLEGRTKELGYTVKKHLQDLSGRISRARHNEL

This assay has as its target megalin (human (endogenous in HK-2)) (UniProt P98164). Description: flow cytometry on cells; GST–RAP at 0.5–8 µg/mL (2-fold steps) incubated with HK-2 cells (wild type and OCRL KO) for 1 h on ice; detected with GST antibody conjugated with Alexa-fluor 488; no-ligand control subtracted; one site-specific binding model for Bmax and kd; only the binder purified. On the technique in general: A flow cytometer gives signals particle by particle.

No constants are given. Whether binding was seen depends on the method and setting. A result given as binding can be weak or reduced; the word gives no strength.

Consider “recombinant GST–RAP fusion protein (receptor-associated protein RAP) (from UniProt P30533) (ligand)”, for which the binding entry is listed as “binds”.
